Results published in patent US20210270842A1.
Residue numbers refer to the chain shown, from its start. These are yes or no findings as the source states them, for the method shown. Some results given as binding are weak or reduced against the parent protein; the word gives no strength.

Sequences of proteins named here, by UniProt entry; tags and fusion partners are left off. A change or cut given only in a name is not applied to a line headed by its entry.
UniProt P01042: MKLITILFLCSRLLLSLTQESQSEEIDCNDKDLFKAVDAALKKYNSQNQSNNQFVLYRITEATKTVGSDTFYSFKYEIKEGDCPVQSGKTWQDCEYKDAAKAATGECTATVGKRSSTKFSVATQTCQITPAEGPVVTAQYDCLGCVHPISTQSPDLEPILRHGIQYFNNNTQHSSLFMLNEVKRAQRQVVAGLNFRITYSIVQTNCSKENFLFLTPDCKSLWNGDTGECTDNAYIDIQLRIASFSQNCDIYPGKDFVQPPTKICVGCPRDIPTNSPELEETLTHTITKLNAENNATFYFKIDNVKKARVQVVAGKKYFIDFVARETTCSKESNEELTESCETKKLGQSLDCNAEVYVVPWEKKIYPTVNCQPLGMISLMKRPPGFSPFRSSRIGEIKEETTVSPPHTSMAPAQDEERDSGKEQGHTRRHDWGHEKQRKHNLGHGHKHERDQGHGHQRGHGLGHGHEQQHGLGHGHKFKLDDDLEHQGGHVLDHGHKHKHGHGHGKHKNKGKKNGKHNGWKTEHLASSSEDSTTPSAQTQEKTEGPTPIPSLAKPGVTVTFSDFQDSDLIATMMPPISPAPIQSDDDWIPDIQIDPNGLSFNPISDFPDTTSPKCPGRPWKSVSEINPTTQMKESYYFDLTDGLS

B1: 559B-M0064-H02 (Fab, V domains shown)
VH: EVQLLESGGGLVQPGGSLRLSCAASGFTFSQYIMGWVRQAPGKGLEWVSSIGSSGVTVYADSVKGRFTISRDNSKNTLYLQMNSLRAEDTAVYYCARGGGVTVLHAFDIWGQGTMVTVSS
VL: QSALTQPASVSGSPGQSITISCTGTSSDVGGYNYVSWYQQHPGKVPKLIIYEGNKRPSGVPDRFSGSKAGNTASLTVSGLQAEDEADYYCTAYGGHSRFYVFGTGTKVTVLG
B2: 559B-M0070-H10 (Fab, V domains shown)
VH: EVQLLESGGGLVQPGGSLRLSCAASGFTFSTYGMRWVRQAPGKGLEWVSVISPSGGKTNYADSVKGRFTISRDNSKNTLYLQMNSLRAEDTAVYYCARGRPDYYAMDVWGQGTTVTVSS
VL: QSALTQPPSASGAPGQRVTISCSGSSSNIGSNTVNWYQKLPGTAPKLLIYYNDRRPSGVPDRFSGSKSGNTASLTISGLQAEDEADYYCAAWDDSLSGPVFGGGTKLTVL
B3: 559B-M0039-G07 (Fab, V domains shown)
VH: EVQLLESGGGLVQPGGSLRLSCAASGFTFSRYRMRWVRQAPGKGLEWVSGISPSGGWTYYADSVKGRFTISRDNSKNTLYLQMNSLRAEDTAVYYCTTDNGDYALAHWGQGTLVTVSS
VL: DIQMTQSPSSLSASVGDRVTITCRASQRIINYLNWYQQKPGKAPKLLIYAASSLQSGVPSRFSGSGSGTDFTLTISSLQPEDFATYYCQQSYSAPLTFGGGTRVEIK
B4: 559B-M0003-A08 (Fab, V domains shown)
VH: EVQLLESGGGLVQPGGSLRLSCAASGFTFSAYVMRWVRQAPGKGLEWVSSIGSSGGPTYYADSVKGRFTISRDNSKNTLYLQMNSLRAEDTAVYYCARRGGSGSSHAFDIWGQGTMVTVSS
VL: B3 VL with R28S, I30S, N31S, F83S, A84G, S91Y, Y92N, A94F, R103K
B5: 559B-M0054-B11 (Fab, V domains shown)
VH: EVQLLESGGGLVQPGGSLRLSCAASGFTFSYYGMNWVRQAPGKGLEWVSVISPSGGLTVYADSVKGRFTISRDNSKNTLYLQMNSLRAEDTAMYYCATGFAVQHGGGAFDIWGQGTMVTVSS
VL: DIQMTQSPATLSMSPGERATLSCRASQSVTTYLAWYQQKPGQAPRLLIYDASIRATGVPARFSGSGSGTDFTLTISRLEPEDFAVYYCQQRTIWPLTFGGGTKVEIK
B6: 559B-M0068-D01 (Fab, V domains shown)
VH: EVQLLESGGGLVQPGGSLRLSCAASGFTFSIYPMSWVRQAPGKGLEWVSGISPSGGKTAYADSVKGRFTISRDNSKNTLYLQMNSLRAEDTAVYYCARGQGRAVRGKLYYYGMDVWGQGTTVTVSS
VL: QSALTQPPSASQTPGQTVTISCSGSSSNIGTNNVNWYQQLPGTAPKLLISSHHRRPSGVPDRFSASKSGTSASLAISGLQSEDEADYYCAAWDDSLNGPVFGGGTKLTVL
B7: 559B-M0067-G11 (Fab, V domains shown)
VH: EVQLLESGGGLVQPGGSLRLSCAASGFTFSPYEMVWVRQAPGKGLEWVSSIVPSGGWTVYADSVKGRFTISRDNSKNTLYLQMNSLRAEDTAVYYCASPSGRGLAFDIWGQGTMVTVSS
VL: DIQMTQSPGTLSLSPGERATLSCRASQSISSSYLAWYQQKPGQAPRLLIYGASSRATGVPDRFSGSGSGTEFTLTISSLQPEDFATYYCLQQKSYPYTFGQGTKVEIK
B8: 559B-M0004-E08 (Fab, V domains shown)
VH: EVQLLESGGGLVQPGGSLRLSCAASGFTFSMYHMNWVRQAPGKGLEWVSSIYSSGGSTRYADSVKGRFTISRDNSKNTLYLQMNSLRAEDTAVYYCARGVRYGMDVWGQGTTVTVSS
VL: DIQMTQSPSSVSASVGDRVTITCRASQGISSWLAWYQQKPGKAPKLLIYAASSLQSGVPSRFSGSGSGTDFTLTISSLQPEDFATYYCQQANSFPITFGQGTRLEIK
B9: 559B-M0065-B10 (Fab, V domains shown)
VH: EVQLLESGGGLVQPGGSLRLSCAASGFTFSKYFMTWVRQAPGKGLEWVSWISSSGGYTNYADSVKGRFTISRDNSKNTLYLQMNSLRAEDTAVYYCARGAYYYDAFDIWGQGTMVTVSS
VL: DIQMTQSPSSLSASVGDRVTITCRASQSIAIFLNWYQQTPGKPPKLLIYGASTLQSGVPSRFSGSGSGADFTLTISNLQLEDFTTYYCQQSYSTLYTFGQGTKLEIK
B10: 559B-M0069-C09 (Fab, V domains shown)
VH: EVQLLESGGGLVQPGGSLRLSCAASGFTFSMYDMHWVRQAPGKGLEWVSSISSSGGYTQYADSVKGRFTISRDNSKNTLYLQMNSLRAEDTAMYYCARDRGLIAAAGGFDPWGQGTLVTVSS
VL: DIQMTQSPSSLSASVGDRVTITCRASQSIGIYLNWYQQKPGTAPKLLIYAASSLQSGVPSRFTGSGSGTDFTLTISSLQPDDFATYYCQRTYGRPLTFGGGTKVEIK

Experiments:
[1] = biological target: cleaved high molecular weight kininogen (HMWK) (human) (UniProt P01042); assay: ELISA; Fab coated on plate, biotinylated antigen
[2] = biological target: cleaved high molecular weight kininogen (HMWK) (human) (UniProt P01042); assay: ELISA; Fab coated on 96-well plate, biotinylated antigen, streptavidin-HRP
[3] = biological target: cleaved high molecular weight kininogen (HMWK) (human) (UniProt P01042); assay: Fab passively immobilized on 384-well plate, biotinylated antigen, streptavidin-HRP
[4] = biological target: cleaved high molecular weight kininogen (HMWK) (human) (UniProt P01042); assay: ELISA: Fab coated on 96-well plate, LowCross block, biotinylated antigen, streptavidin-HRP; signal over uncoated well

binding [1]	binding [2]	binding [3]	binding [4]	Binder
binds	binds	binds		B1
binds	binds	binds	binds	B2
	binds		binds	B3
	binds		binds	B4
	binds		binds	B5
	binds		binds	B6
	binds		binds	B7
	binds		binds	B8
	binds		binds	B9
	binds		binds	B10
